Out of some 53,000 sequences screened, about 3,700 (7%) were called active.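 The calls were made as follows: active = gene knockdowns whose robust z-score for IL-1 alpha signal is at least 2 or at most -2, so actives lie on both sides; inactive = the rest.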 Some of the results follow.

From PubChem BioAssay AID1508600 (Functional Genomics Laboratory (NCATS/FGL), 2020) come the findings set out here.

The test in a line: Components of the Cytosolic LPS Sensing Pathway: Gene Identification via Genome-wide siRNA Screen.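 Also: robust z of the log signal after scaling to non-targeting control siRNA wells of the plate.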 The following applies: RAW264.7 macrophages, IL-1a HTRF, actives lie on both sides, screened at 100 nM (by protocol), cells primed 5 h with Pam3CSK4 first. The method in brief: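 Mouse macrophage line RAW264.7 is transfected with siRNA (100 nM final), grown 48h, primed with TLR ligand Pam3CSK4 5 h and given intracellular LipidA 24 h. IL-1a in supernatant is read by HTRF and viability by luminescence.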
For orientation: Time-resolved FRET reads energy transfer from a long-lived donor to a nearby acceptor.
Consider CGAUCUUCCGCUCUGACUCTT against Taar4, for which the z-score was inactive: -0.845. In the case of GGGAAGCUGGGAAAAAAGATT against Tbc1d19 it was inactive: 0.825.

In the case of UAACUCCAUGAUCAAUCCCTT against Gpr6, the z-score was inactive: 0.0493. CCAAAAAGAUGCUGUUAAGTT against Ankrd34b: the z-score is inactive: 1.07.

GGGUUCCUCCUUUCACAGATT against Ppia: the z-score is inactive: -1.3. In the case of GGAAUACUUAUAGCUGACUTT against Sdr16c5 it was inactive: -1.34; in that of CCAGCAGCAAUUAGGACGUTT against Ogdh, inactive: -0.0569; in that of GUCAUGCCAGCAGAAAUGCTT against Sprr2j-ps, inactive: -0.418. On to CCCUAGGAAAGGGUUUUAGTT against Tmem129, for which the z-score was inactive: 1.39. With GCCAUUAAUCUCACAUGUATT against Crebrf, the z-score was inactive: 1.39. Turning to GGAAUUUUCAAGGAACAAUTT against Il1rapl2, the z-score was inactive: -1.8.

For the sequence GGACCUGAGAGACUCUUUGTT against Ip6k2, the z-score was active: -3. GCCUGUGGUAGGAUACUAUTT against Denr: the z-score is inactive: -0.964.

Turning to “GGAGUAGAUUUAAAAGGCATT against 4933440M02Rik”, the z-score was inactive: 0.145. In the case of GGUAUCAGAGCUGUGUUCUTT against Cpped1 it was inactive: -1.48; in that of GGAGUACCCGGACUACAAGTT against Sox3, inactive: 0.982; in that of GGCCAUCAGUAACCCAUUGTT against Olfr1132, inactive: -1.65.

As for GGUCCUCCAGUAAGGACAATT against Hsd3b6, the z-score is inactive: 1.56. In the case of GGACCCAUGAGGUUAACUUTT against Tbc1d22a it was inactive: 0.922; in that of GCCUUGAGAUGACGACAACTT against Thyn1, inactive: -0.29. In the case of GGAAAUGUGCAAUUUAGUGTT against Abcb1a, the z-score was inactive: 1. In the case of GGAAGGAUCAUACCUAUUUTT against Acbd3, the z-score was inactive: 0.551. Turning to CCCUAUAAAGAGAAAUUGGTT against Zfp663, the z-score is inactive: -0.166. Consider AGGUGAUGGGUUAUGGCAGTT against Olfr1331, for which the z-score was inactive: 0.0143. In the case of GGGACACACGGUAUACAUCTT against Pfkl it was inactive: 0.627. The figure for CCCUGCGCCCUCUAAUAAATT against Pla2g1b is inactive: -0.624; for GGUAGAAGUCGUCUCUAACTT against Csf2 it is inactive: -0.596; for GCCAGAAUGUGCUCAUUCGTT against Amhr2 it is inactive: -0.418. In the case of GGAUGUAAAGAGGAAUCUCTT against Abca16 it was inactive: -0.748; in that of GCGAGAUUCUUGCUUACUCTT against Slc66a2, inactive: -0.472; in that of GGCAAAGUAUAAAGAAGUATT against Gkap1, active: 2.23. Regarding GCUGGUUUCGGACAUAGCCTT against Actn3, the z-score was inactive: 0.557. Take GGAGGAGCUUAGCCCUUUUTT against Bad: the z-score was active: 2.28. Regarding CGGAUUAGAAGAGCCAAACTT against Cd59b, the z-score is inactive: 0.352. In the case of CGAGAUUGCCAAGGCUCAATT against Hint1 it was inactive: -0.855; in that of GGACGAUCAUGACAAGAUGTT against Psmb2, active: -2.35; in that of GGGAUUUUCAGGGAGAUUUTT against Plekho1, inactive: 1.46. For the sequence GGCAUCAGUGAGGUUUGUCTT against Olfr420, the z-score is inactive: -0.963. As to GCCUAACAAUAGUGGAAUUTT against Ms4a13, the z-score is active: 2.76. CCCGAAUGCUGCUGUAUACTT against Psd3: the z-score was inactive: -0.379. For GGGCAUCAUGCCUCAUGAATT against Alkbh6, the z-score was inactive: -0.901. With GGAAAAUCAGACCAUACUGTT against Arl3, the z-score was inactive: -0.441.

Consider GCAAUAACUGGAAUAAUGGTT against Slc40a1, for which the z-score was inactive: 0.0985. Regarding GGGACAUGAAAUAAAUGUCTT against Mag, the z-score is inactive: -0.0573. For the sequence CCUGGACCAGAAUAAACACTT against Crtc1, the z-score is inactive: -0.162. With GGCAUGUUUUGGGAAGAGCTT against Btbd6, the z-score was inactive: 0.808.

For GGGAUAAAAACAGUGGCUUTT against Slc7a12, the z-score is inactive: -0.198. GGGAGUCCUUAAAAGUCGUTT against Mas1: the z-score is inactive: -0.136. As to GGGUCAUUUUUUAGCCUUCTT against Vmn1r89, the z-score is inactive: 0.496. Take CCACCAAGGAGACAUAGAUTT against Nans: the z-score is active: 2.85. As for CGAUUUUCACCAAUUGUGGTT against Diaph2, the z-score was active: -2.03. On to GGACAUAAAGGUAAAAUGATT against Zfp275, for which the z-score is inactive: -1.63. The figure for GGCCUUGAUGGUACCAUGUTT against Uqcr11 is inactive: -1.51; for GGCCUGAGAUCGAUCAUUCTT against Plcb4 it is inactive: 0.425. Consider GGAAAGAGAAGAAAACAAATT against Tmem25, for which the z-score was inactive: -0.184. In the case of GCACAGAUAAAACUAACUATT against Kcna7 it was inactive: -0.603; in that of GGGAUAGCUGUCUUUCAUUTT against Extl3, inactive: -1.02. Turning to GGCAUUCUUCAAGAGGACGTT against Esrrg, the z-score is inactive: -1.01. For GGAUGUGAAGUCAGUUUCATT against Tmem82, the z-score was inactive: -1.96.

In the case of GGAAACGUGGAACAUAAGATT against Gapdhs, the z-score is inactive: 1.95.

On to CGUAGGAAUGAUCACAUUGTT against Olfr1136, for which the z-score was inactive: 0.206. Turning to GGAGUAUGGCGAAUUCUAUTT against Hsp90ab1, the z-score is inactive: 1.34.

GCAGAUCGGUUCUCAGAUGTT against Tmem269: the z-score is inactive: 1.05. For the sequence GGGAAAAGAUUCAGCUAGATT against Ntn4, the z-score is inactive: -1.16.

In the case of GGGAGAACUAUCACCAUAATT against Wdr11, the z-score is inactive: -0.302. For CCAAGGGACACAUGCCAGATT against Olfr714, the z-score is inactive: 0.925.

For the sequence GCCAUAACCUAAGACUUUATT against Adcyap1r1, the z-score was inactive: 0.0309. GGCAGCCUCUGAAAUUGCUTT against Slc25a35: the z-score is inactive: -1.63. Consider GGAAUUAUGUGGAAAACAGTT against Mapk9, for which the z-score was inactive: 0.337. With GGGUCAAAUCUGCUUUUUCTT against Olfr272, the z-score is inactive: -0.287.

With CCAAGAUACCUUUUUUGAGTT against Paox, the z-score is inactive: 0.455. In the case of GCUCGAAAACUGAGAGUUATT against Pcdhgb1 it was active: 3.32; in that of GGUCUUAAACAGUUACAUGTT against Dmtf1, inactive: -0.0586; in that of GGCAGUAGUUCAGUUGAUATT against Fam163a, inactive: 0.893. With GGUGAUUUCUUUGUGUGAUTT against Rpl22, the z-score is inactive: 0.175. With GCGGUCGUUGGCAAAAACUTT against Commd8, the z-score was inactive: 0.828. For the sequence CCAUGGAUGUAUGAGACUGTT against H2-M1, the z-score is inactive: -0.131. In the case of GCGAGAAAGAAUUUAACCUTT against Sash3, the z-score was inactive: -0.592.

For GGUUCUAUGACAGAAAUGATT against Rngtt, the z-score was inactive: -0.452. “GCAUGUUCGCACGUGUCAATT against 5330439B14Rik”: the z-score was inactive: -1.05. Regarding GGCAACAGACAAGAACAAGTT against Plpp7, the z-score is inactive: -0.221. On to GGUCAUCUCUCUUUAGCCUTT against Haspin, for which the z-score is inactive: -0.255.

On to GGCACAAGACCUUCAGCACTT against Olfr566, for which the z-score was inactive: 0.461. The figure for GGCUUCAUGGUUCCCUGUATT against Rhox1 is inactive: -1.22; for CGACCUCAGACUGAAGGACTT against Msr1 it is inactive: 1.43; for GCUAGCUGUAAAACAUUGCTT against Nppc it is inactive: 1.19. The figure for GGGCUGGAUUUUGAUGAUGTT against Arnt is inactive: 0.0297; for GGGACUGGAUUUCUGUAUUTT against Derl1 it is inactive: -0.694; for CGACAUAGCUACCAGUCUGTT against Ido1 it is inactive: 0.042.

With GGAUGUGGAGAACAGCUUCTT against Ppt1, the z-score is inactive: -0.768.

In the case of GGCCCAACGACAUUUAUGUTT against Pop7, the z-score is inactive: -1.38. Regarding GGUGCUACGGGACAUUGAGTT against Kmt5c, the z-score was inactive: 0.208. The figure for GCAGAUGCAUGAGAAAUCGTT against Aplnr is inactive: -0.992.

For the sequence CCUUUGUCCGGUCCAUUCCTT against Hk1, the z-score is inactive: -0.654.

With GGACUUUCUGGUCUGCCCUTT against Gli1, the z-score was inactive: 1.97. In the case of GGAGGCAUAUCUAGGCACUTT against Cdkn1a it was inactive: -1.82; in that of GGAAAAUCUUGACUUCAUCTT against Cbwd1, inactive: -0.316; in that of GCUGUGGACGGACUCUAUATT against Dhodh, inactive: 0.00503. In the case of GCUGAGGAAAUGCGAAGUCTT against Tmem98 it was inactive: 0.0406; in that of GGGAAGUUUUAUGGUUGAUTT against Rad51c, inactive: 0.333. Turning to GGAGAAUGUUUUUGACUGGTT against Mfsd6l, the z-score was inactive: 0.471. The figure for GGCAUCCAUAAAGAACAGATT against Ranbp10 is inactive: -0.85; for CGUUGUGUUCUGAACAACCTT against Pced1a it is inactive: 0.419. In the case of CGAAGGGCAACGGUUCUCATT against Akr1b7 it was inactive: 0.427. In the case of GGCUGUCCUGGUCCAAUAUTT against Slc35a2, the z-score is inactive: -1.43. On to “CCUAACCAAGAUCCAAUCUTT against 6330549D23Rik”, for which the z-score is active: -2.85. In the case of GGUUGCCAAAUACUGCUGUTT against Ppm1a, the z-score was inactive: -1.41.
